Reference: PubChem BioAssay AID540256 (National Center for Advancing Translational Sciences (NCATS), 2011)
Out of some 300,000 compounds screened, about 3,700 (1.2%) were called active. Inconclusive results, whose numbers are uncertain, are shown with a selection of clear calls. Calls come from the whole dose curve; tested in HEK293 cells. Where the call is inconclusive, the potency comes from a doubtful curve fit.

Experiment: qHTS for Inhibitors of binding or entry into cells for Lassa Virus; note: nearly all actives have a fitted effect of over 50% in size
Details: Lassa virus pseudotype entry inhibition, cell reporter; series mostly up to 37.9 µM
Potency is the fitted concentration of half-maximal effect.

SMILES	Potency
Cc1cccc(NC(=O)COC(=O)c2ccc3c(=O)n4c(nc3c2)CCC4)c1	inconclusive: 6.31 µM [activator, single point]
COc1ccc(S(=O)(=O)NCC(c2cccnc2)N2CCN(Cc3ccccc3)CC2)cc1C (stereo unspecified)	inconclusive: 35.5 µM [inhibitor, partial curve, poor fit]
CCOc1cc(CNc2ccc(N(C)C)cc2)cc(Br)c1OCC(=O)NC(C)(C)C	inconclusive: 14.1 µM [inhibitor, single point]
COc1ccc([C@H]2C[C@@H](n3cc(COC(=O)c4ccccc4)nn3)[C@H](O)CN2Cc2cccs2)cc1	inconclusive: 35.3 µM [inhibitor, single point]
CC1=NCCN1S(=O)(=O)c1c(C(C)C)cc(C(C)C)cc1C(C)C	inconclusive: 35.5 µM [inhibitor, partial curve, poor fit]
Cc1cccc(NC(=O)CSCC(=O)N(C)Cc2ccc3c(c2)OCCO3)c1	inconclusive: 6.31 µM [inhibitor, single point]
Cc1ccc(OC(C)c2nnc(N)s2)cc1Cl (stereo unspecified)	inconclusive: 0.562 µM [activator, single point]
CC1Cc2ccccc2N1C(=O)c1cc2c(=O)n3ccccc3nc2n1C (stereo unspecified)	inconclusive: 23.1 µM [inhibitor, single point]
CCOC(=O)c1ccc(NC(=O)C2CCN(C(=O)c3ccc(OC)c(OC)c3)CC2)cc1	inconclusive: 35.5 µM [inhibitor, single point]
O=C(CN(c1ccc(Br)cc1)S(=O)(=O)c1ccc(Cl)c([N+](=O)[O-])c1)NCC1CCCO1 (stereo unspecified)	inconclusive: 35.5 µM [inhibitor, single point]
CN(CC(=O)Nc1ccccc1Br)C(=O)c1ccc(-c2ccc(Cl)cc2)o1	inconclusive: 14.1 µM [inhibitor, partial curve, poor fit]
Cc1cccc(C)c1NC(=O)Cn1nnc(-c2ccc(N3CCOCC3)cc2)n1	inconclusive: 16.4 µM [inhibitor, single point]
COc1cccc(C(=O)C2CCCN(Cc3cnn(C(C)C)c3)C2)c1 (stereo unspecified)	inactive
CC(C)c1ccc(N(CC(=O)NCCc2ccccc2)C(=O)c2csnn2)cc1	inconclusive: 10 µM [inhibitor, partial curve, poor fit]
Cc1cc(N2CCN(c3ccccc3Cl)CC2)n2cc(-c3ccccc3)nc2n1	inconclusive: 29.1 µM [inhibitor, single point]
CCOc1ccc(OCC)c(NC(=O)C2CCCN(S(=O)(=O)c3ccc4c(c3)oc(=O)n4C)C2)c1 (stereo unspecified)	inactive
N#Cc1c(NC(=S)NC(=O)c2ccccc2)sc2c1CCCC2	inconclusive: 1.16 µM [activator, full curve]
O=C(Cc1ccccc1)Nc1ccc(S(=O)(=O)N2CCOCC2)cc1	inactive
COc1cccc(/C=N/NC(=O)CNC(=O)c2cccs2)c1O	inconclusive: 35.5 µM [inhibitor, single point]
CC(=O)N1N=C(c2ccc3ccccc3c2)OC12CCCC2	inconclusive: 11.2 µM [inhibitor, partial curve, poor fit]
COc1ccc(Cn2c(C3CC3)nc3ccc(NC(C)=O)cc3c2=O)cc1	inconclusive: 29.1 µM [inhibitor, single point]
CC1(C)Cc2c(C#N)c(SCC(=O)c3ccccc3)nc(N3CCOCC3)c2CS1	active: 17.8 µM

Part of the list above, field by field:
COc1ccc(S(=O)(=O)NCC(c2cccnc2)N2CCN(Cc3ccccc3)CC2)cc1C (stereo unspecified)
  Potency: inconclusive: 35.5 µM [inhibitor, partial curve, poor fit]
CC(C)c1ccc(N(CC(=O)NCCc2ccccc2)C(=O)c2csnn2)cc1
  Potency: inconclusive: 10 µM [inhibitor, partial curve, poor fit]

Continued.

SMILES	Potency
COc1ccc(NC(=O)COC(=O)c2ccc(Cl)c(S(N)(=O)=O)c2)c([N+](=O)[O-])c1	inconclusive: 12.6 µM [activator, single point]
COc1ccccc1NC(=S)NNC(=O)c1c(Cl)c(C)nn1C	inactive
CCOC(=O)C1CCN(Cc2cn[nH]c2-c2ccccc2)CC1	inconclusive: 0.517 µM [inhibitor, partial curve, poor fit]
Cc1ccc(CNC(=O)C2(S(=O)(=O)c3ccc(C)cc3)CC2)cc1	inconclusive: 0.891 µM [inhibitor, full curve, poor fit]
O=[N+]([O-])c1cccc(/C([O-])=C(/C(=S)Nc2cccc3ccccc23)[n+]2ccccc2)c1	inactive
COc1cccc(CNC(=O)CSc2ccc(-c3sc(-c4ccccc4)nc3C)nn2)c1	inconclusive: 8.91 µM [inhibitor, partial curve, poor fit]
Oc1c(Br)cc(Br)cc1/C=N/Nc1ccc(Cl)nn1	inconclusive: 0.891 µM [inhibitor, full curve, poor fit]
O=C(NNC(=O)c1ccccc1O)c1ccc(S(=O)(=O)Nc2ccccc2)cc1	inconclusive: 11.2 µM [inhibitor, partial curve, poor fit]
CCOc1ccc(C(=O)NCC(c2ccco2)S(=O)(=O)c2ccc(C)cc2)cc1 (stereo unspecified)	inactive
CSc1ccc(CN(C)C(=O)c2ccc(S(=O)(=O)Nc3ccccc3)cc2)cc1	inactive
CCNC(=O)/C(C#N)=C/c1c(N2CCN(C)CC2)nc2c(C)cccn2c1=O	inactive
O=C1CN(C(=O)c2cc(Br)c(Br)s2)c2ccccc2N1	inconclusive: 14.1 µM [inhibitor, partial curve, poor fit]
CN(C)CCN(C(=O)/C=C/c1cccs1)c1nc2c(F)cc(F)cc2s1	inconclusive: 12.6 µM [inhibitor, single point]
CC(C)(C)c1ccc(C(=O)Nc2ccc(CN3CCS(=O)(=O)CC3)cc2)cc1	inconclusive: 5.62 µM [inhibitor, single point]
Cc1ccc(C)c(N2CCN(c3ncnc4c3nc3n4CCCCC3)CC2)c1	inactive
CCC(C)c1ccc(NC(=S)NCc2cccs2)cc1 (stereo unspecified)	inactive
CCNc1nc(-c2ccc(OC(F)F)cc2)c(C)s1	inconclusive: 11.2 µM [activator, single point]
O=C(C1CCCN(S(=O)(=O)c2cccs2)C1)N1CCN(c2cccc(Cl)c2)CC1 (stereo unspecified)	inconclusive: 35.5 µM [inhibitor, partial curve, poor fit]
CCOc1ccc(/C=C/c2c([N+](=O)[O-])c(=O)n(C)c(=O)n2C)cc1	inconclusive: 3.98 µM [inhibitor, partial curve, poor fit]
CC1CC(C)CN(c2ncc3c(n2)CC(c2ccccc2Cl)CC3=O)C1 (stereo unspecified)	active: 10 µM
CN(C(=O)CS(=O)(=O)c1cn(CC(=O)N2CCOCC2)c2ccccc12)c1ccccc1	inactive
Cc1ccc(NC(=O)Cn2nnnc2-c2ccccc2N)cc1	inactive

Structures shown so far that have four or more nitrogen atoms (twelve):
SMILES	Potency
COc1ccc(S(=O)(=O)NCC(c2cccnc2)N2CCN(Cc3ccccc3)CC2)cc1C (stereo unspecified)	inconclusive: 35.5 µM [inhibitor, partial curve, poor fit]
COc1ccc([C@H]2C[C@@H](n3cc(COC(=O)c4ccccc4)nn3)[C@H](O)CN2Cc2cccs2)cc1	inconclusive: 35.3 µM [inhibitor, single point]
CC1Cc2ccccc2N1C(=O)c1cc2c(=O)n3ccccc3nc2n1C (stereo unspecified)	inconclusive: 23.1 µM [inhibitor, single point]
Cc1cccc(C)c1NC(=O)Cn1nnc(-c2ccc(N3CCOCC3)cc2)n1	inconclusive: 16.4 µM [inhibitor, single point]
CC(C)c1ccc(N(CC(=O)NCCc2ccccc2)C(=O)c2csnn2)cc1	inconclusive: 10 µM [inhibitor, partial curve, poor fit]
Cc1cc(N2CCN(c3ccccc3Cl)CC2)n2cc(-c3ccccc3)nc2n1	inconclusive: 29.1 µM [inhibitor, single point]
COc1ccccc1NC(=S)NNC(=O)c1c(Cl)c(C)nn1C	inactive
COc1cccc(CNC(=O)CSc2ccc(-c3sc(-c4ccccc4)nc3C)nn2)c1	inconclusive: 8.91 µM [inhibitor, partial curve, poor fit]
Oc1c(Br)cc(Br)cc1/C=N/Nc1ccc(Cl)nn1	inconclusive: 0.891 µM [inhibitor, full curve, poor fit]
CCNC(=O)/C(C#N)=C/c1c(N2CCN(C)CC2)nc2c(C)cccn2c1=O	inactive
Cc1ccc(C)c(N2CCN(c3ncnc4c3nc3n4CCCCC3)CC2)c1	inactive
Cc1ccc(NC(=O)Cn2nnnc2-c2ccccc2N)cc1	inactive

Additional records.

SMILES	Potency
O=c1c2cc3c(cc2nc2sc(Nc4ccc(F)cc4F)nn12)OCO3	inactive
COc1ccc(COc2cc(-c3cccc(OC)c3)nc3ccc(NC(=O)c4cccnc4)cc23)cc1	active: 14.6 µM
N#Cc1c(N)[nH]c2ccc(Sc3ccccc3)cc12	inconclusive: 0.631 µM [inhibitor, full curve]
CCCCOCC1CN(CCCC)S(=O)(=O)c2c(Oc3ccc(C)cc3)cccc2O1 (stereo unspecified)	inconclusive: 0.628 µM [inhibitor, full curve, poor fit]
O=C(COc1ccc(F)cc1Cl)Nc1ccccc1C(=O)N1CCCCC1	inactive
Cc1onc(-c2c(F)cccc2Cl)c1C(=O)OCC(=O)NC(=O)NCC(C)C	inconclusive: 0.562 µM [inhibitor, full curve, poor fit]
COc1ccc(N2CCCn3c2nc2c3c(=O)n(Cc3ccccc3)c(=O)n2C)c(OC)c1	inconclusive: 1.26 µM [inhibitor, single point]
CCCN(C(=O)Cn1ncc2c(=O)oc3ccccc3c21)c1cccc(C)c1	inconclusive: 6.31 µM [activator, single point]
CCOC(=O)c1cn(CC)c2c(ccc3ccccc32)c1=O	inactive
CCCCOC(=O)c1ccc(NS(=O)(=O)c2c(C)nc3scc(C)n3c2=O)cc1	inconclusive: 1 µM [inhibitor, full curve, poor fit]
COc1cc(C=O)ccc1OCCOCCOc1ccccc1Cl	inactive
COc1ccc(C(=O)Nc2ccc3ccccc3c2)cc1OC	inconclusive: 0.708 µM [activator, single point]
Cc1ccccc1OCC(O)CNC1CCCC1 (stereo unspecified)	inconclusive: 0.631 µM [inhibitor, single point]
Cc1ccc(CNC(=O)Cn2ncc3c(C)n(Cc4ccc(Cl)cc4)c(C)c3c2=O)cc1	inactive
COc1ccc(NC(=O)c2cccc(Oc3ccc([N+](=O)[O-])cc3Cl)c2)cc1	inconclusive: 17.8 µM [inhibitor, partial curve, poor fit]
Cn1c(N)c(C(=O)COC(=O)/C=C/c2ccc(F)cc2)c(=O)n(C)c1=O	inactive
Cc1ccc(S(=O)(=O)c2nc(-c3ccccc3Cl)oc2N(C)C)cc1	inconclusive: 7.08 µM [inhibitor, partial curve]
CNC(=O)c1cccn(Cc2cccc(C(F)(F)F)c2)c1=O	inconclusive: 39.8 µM [inhibitor, partial curve, poor fit]
COc1ccccc1CC(=O)N1CCC(n2nccc2NC(=O)C2CCOC2)CC1 (stereo unspecified)	inconclusive: 0.891 µM [inhibitor, full curve, poor fit]
Cc1ccccc1OCC(=O)Nc1sc2c(c1C#N)CC(C)(C)NC2(C)C	inconclusive: 39.8 µM [inhibitor, partial curve, poor fit]
O=C(NCc1ccccc1)C(c1ccc(F)cc1)N(Cc1ccco1)C(=O)c1ccccn1 (stereo unspecified)	inconclusive: 14.6 µM [inhibitor, single point]
Cc1ccc(NC(=O)c2ccc(NC(=O)N3CCSc4ncccc43)cc2)cc1Cl	inconclusive: 25.1 µM [inhibitor, single point]
